Measured values from US20260144740A1, “COSMETIC ACTIVE INGREDIENT DERIVED FROM A NON-VOLATILE FRACTION OF CANARIUM EXUDATE AND USES THEREOF” (FLORE SCOLA, priority 2022, published 2026).

Tested on: PCi-SEB human sebocytes
Assay: Cellular proteins (Pierce BCA test) in sebocyte cultures
Assay type: cell-based
Conditions: 20 μM, positive control

Compound: CCCCCCCCCCCCCCOc1ccc(C(=O)O)o1 [TOFA, 5-(tetradecyloxy)-2-furoic acid]
- Protein, Mean: 239.99 μg/well
